Test results published in doi:10.1101/2024.12.04.625365.
Results are given in words; binding and its absence hold for the method and conditions named. Some results given as binding are weak or reduced against the parent protein; the word gives no strength.

The chains behind the UniProt entries cited, without tags or fusion partners. Where a name states a change or a piece, a line headed by the entry shows the natural chain unless it says otherwise. Residues count along the entry.
UniProt P55087, residues 23-323: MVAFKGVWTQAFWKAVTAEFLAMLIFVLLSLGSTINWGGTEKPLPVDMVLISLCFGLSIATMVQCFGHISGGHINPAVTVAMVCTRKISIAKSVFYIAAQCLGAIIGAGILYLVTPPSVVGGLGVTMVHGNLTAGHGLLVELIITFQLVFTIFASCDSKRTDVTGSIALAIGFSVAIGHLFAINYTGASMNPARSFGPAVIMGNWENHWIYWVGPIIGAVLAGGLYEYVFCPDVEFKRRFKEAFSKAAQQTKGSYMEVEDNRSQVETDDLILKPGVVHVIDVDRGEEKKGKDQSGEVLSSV

Molecular target: human AQP4-M23-GFP (human) (UniProt P55087)
Assay: native gel or EMSA

binding: binds
Substance: human AQP4-M23-GFP (from UniProt P55087-2 1-301)
